These are yes or no findings as the source states them, for the method shown. Where a sequence is shown, tags or fusion partners need not be part of it.
Biological target: T1, 6xHis-SIKE-FL (pET15b, N-terminal 6xHis tag) (human) (UniProt Q9BRV8)
T1 sequence: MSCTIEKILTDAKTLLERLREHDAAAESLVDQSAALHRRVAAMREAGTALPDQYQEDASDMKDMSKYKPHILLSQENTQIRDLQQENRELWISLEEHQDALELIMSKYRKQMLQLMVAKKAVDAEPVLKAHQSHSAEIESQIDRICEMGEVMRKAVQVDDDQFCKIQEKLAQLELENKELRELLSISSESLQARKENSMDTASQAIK
Assay: pull-down; in vitro precipitation (IVP): 6xHis-tagged SIKE (8 uM) pre-incubated with the partner (4-11.2 uM; molar ratios 1:0.5, 1:1, 1:1.4) in 50 mM NaH2PO4 pH 8, 0.3 M NaCl at 4 °C, precipitated with Ni-NTA agarose at RT, washed with 50 mM imidazole, eluted with 250 mM imidazole; SDS-PAGE of bound and unbound samples; both purified

## lysozyme (from UniProt P00698 19-147) (enzyme)
  binding: no binding (tested: 4–11.2 μM lysozyme with 8 μM SIKE)
